US20150368616A1, “METHODS FOR INDUCTION OF CELL FATES FROM PLURIPOTENT CELLS” (THE CLEVELAND CLINIC FOUNDATION, priority 2013, published 2015)
At least one compound was matched to its structure with a doubt left.

Tested on: forward differentiating hES culture
Test: Two stage protocol: Pan-CM 8 days then second stage medium with MG132, DAPT, forskolin, sodium propionate; transcript analysis
Assay type: cell-based, human
Conditions: compared with MG132
Protocol: As a means to optimize the differentiation of insulin producing cells a two stage protocol was used in which pluripotent cultures were incubated in the presence of Pan-CM for 8 days as a means of generating pancreatic precursors cellular population. The medium these cultures were incubated in were subsequently changed to a medium designed to enhance differentiation of a pancreatic precursor towards a beta-cell terminal fate. All second stage experiments were performed in a medium composed of DMEM/F12 containing 12 mM Glucose supplemented with 1% B27, 1% Pyruvate, 1 uM Alk5 Inh II, 500 ng/ml Noggin and 0.5 uM (1,25 OH2)-Vit D3.
Among the compounds assayed for the ability to increase insulin production in a forward differentiating culture was the proteosomal inhibitor MG132 which we used in the previous example to stabilize Ngn3 protein. We also included the gamma secretase inhibitor DAPT, which was shown in the previous example to greatly increase beta-cell formation in the developing embryonic pancreatic explant study. We also included the short fatty acid salt sodium propionate, which acts as an agonist of short-chain fatty acid receptors. We also included the adenylyl cyclase activator forskolin. We also included the nuclear hormone receptor agonist 1,25 (OH)2)-Vit D3, which binds to, and activates the VDR protein. […]

SMILES: C=C[C@@]1(C)CC(=O)[C@]2(O)[C@@]3(C)[C@@H](O)CCC(C)(C)[C@@H]3[C@H](O)[C@H](OC(C)=O)[C@@]2(C)O1 [forskolin]
- effects on pancreas-specific transcript levels: minor in comparison
